Results as given in the supplement of paper PMC10849652.
The list shows a part of the results.

Amino acid sequences for entries named in this document (tags omitted). A change or cut given only in a name is not applied to a line headed by its entry.
UniProt P50452: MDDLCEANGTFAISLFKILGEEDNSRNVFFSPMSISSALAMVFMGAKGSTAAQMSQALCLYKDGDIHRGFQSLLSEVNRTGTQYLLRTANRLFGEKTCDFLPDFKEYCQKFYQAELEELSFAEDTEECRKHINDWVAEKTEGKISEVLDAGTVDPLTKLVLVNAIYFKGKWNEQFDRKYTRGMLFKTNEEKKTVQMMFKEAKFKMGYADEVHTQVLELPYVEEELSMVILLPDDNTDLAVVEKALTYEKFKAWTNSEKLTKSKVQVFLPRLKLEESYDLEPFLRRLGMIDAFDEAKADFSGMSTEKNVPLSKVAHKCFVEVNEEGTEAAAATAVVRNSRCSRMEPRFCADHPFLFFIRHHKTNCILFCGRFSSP
UniProt Q12874: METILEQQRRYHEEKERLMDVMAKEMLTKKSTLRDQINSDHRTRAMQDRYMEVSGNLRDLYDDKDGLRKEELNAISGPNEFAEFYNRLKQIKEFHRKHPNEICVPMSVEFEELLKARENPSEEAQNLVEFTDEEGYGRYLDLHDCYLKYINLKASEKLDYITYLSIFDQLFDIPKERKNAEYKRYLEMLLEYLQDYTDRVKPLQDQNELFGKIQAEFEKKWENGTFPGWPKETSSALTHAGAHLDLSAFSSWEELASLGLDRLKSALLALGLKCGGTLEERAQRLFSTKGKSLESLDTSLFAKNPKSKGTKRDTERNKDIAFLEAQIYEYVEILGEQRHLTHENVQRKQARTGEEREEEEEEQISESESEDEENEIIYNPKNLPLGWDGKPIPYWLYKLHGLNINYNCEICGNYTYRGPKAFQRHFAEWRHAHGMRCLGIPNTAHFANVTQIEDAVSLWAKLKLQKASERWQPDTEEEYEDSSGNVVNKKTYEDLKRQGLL
UniProt Q15459: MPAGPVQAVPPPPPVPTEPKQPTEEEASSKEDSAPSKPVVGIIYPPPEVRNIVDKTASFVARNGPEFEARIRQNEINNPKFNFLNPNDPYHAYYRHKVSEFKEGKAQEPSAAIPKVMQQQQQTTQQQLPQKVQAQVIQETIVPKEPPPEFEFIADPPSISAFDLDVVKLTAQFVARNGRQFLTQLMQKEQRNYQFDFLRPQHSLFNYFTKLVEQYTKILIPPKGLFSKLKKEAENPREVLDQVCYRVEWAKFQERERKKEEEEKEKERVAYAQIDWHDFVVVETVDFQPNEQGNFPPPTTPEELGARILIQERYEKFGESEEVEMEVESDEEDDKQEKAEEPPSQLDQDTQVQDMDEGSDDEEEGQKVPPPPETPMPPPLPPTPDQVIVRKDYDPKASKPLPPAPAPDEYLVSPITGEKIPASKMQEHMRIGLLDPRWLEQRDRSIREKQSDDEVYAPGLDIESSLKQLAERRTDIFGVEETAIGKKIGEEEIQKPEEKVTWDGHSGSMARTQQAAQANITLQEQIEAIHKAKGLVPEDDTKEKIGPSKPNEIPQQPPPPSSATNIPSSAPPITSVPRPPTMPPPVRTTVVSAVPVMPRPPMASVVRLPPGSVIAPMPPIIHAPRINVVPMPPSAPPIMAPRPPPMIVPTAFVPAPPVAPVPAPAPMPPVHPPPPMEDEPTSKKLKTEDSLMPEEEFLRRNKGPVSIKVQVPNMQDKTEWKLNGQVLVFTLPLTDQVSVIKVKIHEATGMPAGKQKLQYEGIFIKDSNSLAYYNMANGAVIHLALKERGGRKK
UniProt Q96EB6: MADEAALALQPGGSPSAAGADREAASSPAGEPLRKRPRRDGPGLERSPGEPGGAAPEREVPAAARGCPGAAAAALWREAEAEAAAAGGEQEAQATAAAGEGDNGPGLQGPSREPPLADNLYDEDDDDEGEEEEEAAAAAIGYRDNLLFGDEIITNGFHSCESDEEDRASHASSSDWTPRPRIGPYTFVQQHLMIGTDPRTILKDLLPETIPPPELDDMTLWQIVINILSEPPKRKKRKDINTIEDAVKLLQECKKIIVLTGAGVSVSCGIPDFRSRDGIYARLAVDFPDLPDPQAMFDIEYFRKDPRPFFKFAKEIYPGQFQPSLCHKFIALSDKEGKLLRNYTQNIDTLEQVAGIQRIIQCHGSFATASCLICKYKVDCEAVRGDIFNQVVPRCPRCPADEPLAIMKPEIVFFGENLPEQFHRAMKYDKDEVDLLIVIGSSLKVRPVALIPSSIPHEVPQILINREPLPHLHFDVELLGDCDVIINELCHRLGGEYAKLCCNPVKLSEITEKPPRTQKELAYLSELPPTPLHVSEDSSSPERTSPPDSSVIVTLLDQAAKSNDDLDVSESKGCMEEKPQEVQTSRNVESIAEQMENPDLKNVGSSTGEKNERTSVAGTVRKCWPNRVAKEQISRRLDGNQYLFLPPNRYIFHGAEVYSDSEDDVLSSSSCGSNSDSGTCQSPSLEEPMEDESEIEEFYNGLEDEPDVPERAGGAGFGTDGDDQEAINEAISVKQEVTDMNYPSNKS
UniProt P49903: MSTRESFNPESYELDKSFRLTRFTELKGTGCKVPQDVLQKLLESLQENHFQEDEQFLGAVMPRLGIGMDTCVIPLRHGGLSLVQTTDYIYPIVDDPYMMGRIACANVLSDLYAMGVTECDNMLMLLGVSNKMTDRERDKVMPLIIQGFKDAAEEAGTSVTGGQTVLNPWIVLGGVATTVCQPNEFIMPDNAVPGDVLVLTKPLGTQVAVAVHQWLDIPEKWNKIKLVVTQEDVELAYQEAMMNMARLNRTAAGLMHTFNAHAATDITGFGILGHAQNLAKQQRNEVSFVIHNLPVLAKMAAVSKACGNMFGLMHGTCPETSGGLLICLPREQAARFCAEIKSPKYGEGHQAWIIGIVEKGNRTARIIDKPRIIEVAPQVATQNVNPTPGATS
UniProt O75368: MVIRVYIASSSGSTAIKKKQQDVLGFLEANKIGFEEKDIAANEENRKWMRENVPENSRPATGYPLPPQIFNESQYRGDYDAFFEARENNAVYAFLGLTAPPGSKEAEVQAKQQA
UniProt O14796: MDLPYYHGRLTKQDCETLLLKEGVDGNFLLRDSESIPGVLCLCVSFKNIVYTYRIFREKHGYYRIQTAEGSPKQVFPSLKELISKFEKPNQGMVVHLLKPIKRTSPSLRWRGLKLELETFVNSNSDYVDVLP
UniProt P60059: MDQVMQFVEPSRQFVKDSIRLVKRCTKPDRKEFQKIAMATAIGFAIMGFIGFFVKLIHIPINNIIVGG
UniProt Q9Y6D0, whole entry, looked up: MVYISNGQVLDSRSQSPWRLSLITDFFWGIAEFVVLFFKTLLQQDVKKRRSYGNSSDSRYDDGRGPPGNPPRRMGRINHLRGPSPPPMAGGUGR
UniProt Q9NP31, whole entry, looked up: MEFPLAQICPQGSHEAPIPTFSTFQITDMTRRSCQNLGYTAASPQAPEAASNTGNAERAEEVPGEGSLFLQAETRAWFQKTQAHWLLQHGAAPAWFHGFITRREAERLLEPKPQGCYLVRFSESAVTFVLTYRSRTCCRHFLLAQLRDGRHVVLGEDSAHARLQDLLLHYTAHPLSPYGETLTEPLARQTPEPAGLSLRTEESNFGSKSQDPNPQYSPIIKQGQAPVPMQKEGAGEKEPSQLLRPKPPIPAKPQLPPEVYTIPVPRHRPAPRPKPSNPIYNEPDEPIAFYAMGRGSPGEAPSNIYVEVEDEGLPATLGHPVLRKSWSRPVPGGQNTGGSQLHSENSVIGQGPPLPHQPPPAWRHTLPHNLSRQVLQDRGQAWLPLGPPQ
UniProt Q9NTG7: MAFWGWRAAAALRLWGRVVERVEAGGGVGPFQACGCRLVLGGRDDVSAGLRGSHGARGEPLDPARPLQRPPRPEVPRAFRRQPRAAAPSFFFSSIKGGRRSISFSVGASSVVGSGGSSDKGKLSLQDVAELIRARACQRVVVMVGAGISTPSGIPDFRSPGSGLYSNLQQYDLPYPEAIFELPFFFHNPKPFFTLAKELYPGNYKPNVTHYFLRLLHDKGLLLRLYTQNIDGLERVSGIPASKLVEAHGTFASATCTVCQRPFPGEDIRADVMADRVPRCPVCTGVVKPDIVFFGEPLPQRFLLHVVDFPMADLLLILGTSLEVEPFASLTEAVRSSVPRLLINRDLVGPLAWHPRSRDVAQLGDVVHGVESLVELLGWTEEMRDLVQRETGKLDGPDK
UniProt Q8IX90, whole entry, looked up: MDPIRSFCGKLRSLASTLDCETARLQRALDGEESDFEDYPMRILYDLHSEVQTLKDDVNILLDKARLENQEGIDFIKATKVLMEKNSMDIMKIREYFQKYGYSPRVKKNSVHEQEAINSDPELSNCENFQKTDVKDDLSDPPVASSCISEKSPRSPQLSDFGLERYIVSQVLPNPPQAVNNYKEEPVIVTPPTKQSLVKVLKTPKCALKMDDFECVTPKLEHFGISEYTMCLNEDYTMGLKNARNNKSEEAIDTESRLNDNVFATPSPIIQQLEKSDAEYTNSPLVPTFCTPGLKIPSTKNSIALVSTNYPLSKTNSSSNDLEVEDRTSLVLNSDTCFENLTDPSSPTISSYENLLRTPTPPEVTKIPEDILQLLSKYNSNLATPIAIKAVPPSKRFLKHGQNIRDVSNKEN
UniProt P05546: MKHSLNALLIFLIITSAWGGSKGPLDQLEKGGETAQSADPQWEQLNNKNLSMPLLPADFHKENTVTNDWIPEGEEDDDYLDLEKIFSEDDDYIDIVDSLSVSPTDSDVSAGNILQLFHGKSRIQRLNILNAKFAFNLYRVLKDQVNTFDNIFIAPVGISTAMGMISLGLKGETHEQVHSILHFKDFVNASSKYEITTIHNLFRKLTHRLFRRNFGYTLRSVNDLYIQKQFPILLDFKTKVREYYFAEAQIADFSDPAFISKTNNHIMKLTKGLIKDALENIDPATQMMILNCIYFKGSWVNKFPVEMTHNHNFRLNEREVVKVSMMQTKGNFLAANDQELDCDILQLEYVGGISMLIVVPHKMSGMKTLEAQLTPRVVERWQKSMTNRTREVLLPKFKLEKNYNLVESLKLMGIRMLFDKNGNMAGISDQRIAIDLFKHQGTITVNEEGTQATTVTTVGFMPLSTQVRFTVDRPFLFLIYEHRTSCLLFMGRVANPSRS
UniProt Q9BX95: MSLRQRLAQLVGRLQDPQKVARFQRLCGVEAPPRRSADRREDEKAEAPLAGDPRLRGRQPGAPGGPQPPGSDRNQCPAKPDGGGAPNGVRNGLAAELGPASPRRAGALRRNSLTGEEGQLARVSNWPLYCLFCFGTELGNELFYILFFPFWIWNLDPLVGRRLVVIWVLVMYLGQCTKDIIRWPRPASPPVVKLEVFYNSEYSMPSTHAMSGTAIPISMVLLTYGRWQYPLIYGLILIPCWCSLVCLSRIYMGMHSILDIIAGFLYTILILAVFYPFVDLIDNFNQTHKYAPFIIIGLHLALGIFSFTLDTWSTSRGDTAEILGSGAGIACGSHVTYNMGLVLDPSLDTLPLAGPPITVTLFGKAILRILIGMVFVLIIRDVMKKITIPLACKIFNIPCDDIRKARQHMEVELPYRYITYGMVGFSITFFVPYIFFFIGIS
UniProt Q8NDZ2: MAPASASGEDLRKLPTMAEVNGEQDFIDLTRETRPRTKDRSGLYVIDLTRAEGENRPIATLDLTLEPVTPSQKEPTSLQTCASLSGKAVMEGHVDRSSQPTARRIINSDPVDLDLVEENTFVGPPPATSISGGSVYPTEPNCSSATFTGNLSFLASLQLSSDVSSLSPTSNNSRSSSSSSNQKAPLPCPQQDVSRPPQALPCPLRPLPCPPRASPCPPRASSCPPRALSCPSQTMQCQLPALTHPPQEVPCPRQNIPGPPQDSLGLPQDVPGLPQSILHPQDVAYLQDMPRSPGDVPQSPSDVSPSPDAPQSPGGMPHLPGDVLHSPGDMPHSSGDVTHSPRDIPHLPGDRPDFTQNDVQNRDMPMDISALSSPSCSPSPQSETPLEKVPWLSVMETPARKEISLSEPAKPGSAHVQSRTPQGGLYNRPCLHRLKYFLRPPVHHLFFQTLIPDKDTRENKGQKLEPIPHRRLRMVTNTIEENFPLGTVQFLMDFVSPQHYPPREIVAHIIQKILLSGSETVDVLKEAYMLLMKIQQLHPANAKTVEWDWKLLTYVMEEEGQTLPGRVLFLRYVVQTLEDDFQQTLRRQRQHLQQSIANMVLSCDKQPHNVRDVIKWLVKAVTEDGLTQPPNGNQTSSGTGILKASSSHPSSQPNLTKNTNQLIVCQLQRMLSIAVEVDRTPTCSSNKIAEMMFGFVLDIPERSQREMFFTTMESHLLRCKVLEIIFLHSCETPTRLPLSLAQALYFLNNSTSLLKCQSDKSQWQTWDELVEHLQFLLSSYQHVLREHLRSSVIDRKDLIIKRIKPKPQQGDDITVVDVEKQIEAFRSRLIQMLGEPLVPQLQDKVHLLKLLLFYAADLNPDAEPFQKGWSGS
UniProt O75563, whole entry, looked up: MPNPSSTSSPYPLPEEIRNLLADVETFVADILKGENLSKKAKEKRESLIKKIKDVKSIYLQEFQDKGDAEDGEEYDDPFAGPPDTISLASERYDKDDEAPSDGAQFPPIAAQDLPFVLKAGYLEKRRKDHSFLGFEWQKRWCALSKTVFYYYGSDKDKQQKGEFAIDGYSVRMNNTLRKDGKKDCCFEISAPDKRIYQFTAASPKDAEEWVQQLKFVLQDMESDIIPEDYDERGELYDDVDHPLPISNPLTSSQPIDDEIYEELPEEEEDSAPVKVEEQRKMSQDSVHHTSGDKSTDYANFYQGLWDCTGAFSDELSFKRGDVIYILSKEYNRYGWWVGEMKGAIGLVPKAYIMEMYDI

Assays:
Assay in all cases: log2 fold change, soluble protein after heating vs DMSO (PISA); higher = thermal stabilisation; K562 cells, 10 uM, 30 min; active = over 0.2 and 3.5 SD of the protein, either way, in both replicates (recomputed)
[1] = compound: C#Cc1cccc(Nc2ncnc3cc(OCCOC)c(OCCOC)cc23)c1 [erlotinib]
Outline: (§1)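 Soluble protein was quantified by TMTpro 16plex LC-MS/MS after channel sums were equalised. It was obtained as the supernatant after 21,000xg for 90 min from pooled aliquots of K562 cells (2×10^6 cells/mL, 10 μM compound, 30 min) heated for 3 min across 48°C-58°C and extracted in PBS with 0.5% NP-40 at 4°C. Thermal stability values are relative to control samples and come from duplicates. They are given as log2 fold changes.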

[2] = compound: C/C(=N\NC(=O)C1=CC(=CC=C1)S(=O)(=O)N2CCOCC2)/C3=C(C=CC(=C3)Cl)O
Outline: as §1

[3] = compound: C1=CC(=C(C=C1Cl)C2=NC3=NC=CN=C3C(=N2)NC4=CC=NC=C4)F
Outline: as §1

[4] = compound: C1=CC(=CC=C1C2=NC3=C(N2)C=C(C=C3)C(=O)N)OC4=CC=C(C=C4)Cl
Outline: as §1

[5] = compound: C1=CC2=C(C=CC(=C2)/C=C\3/C(=O)NC(=NCC4=CC=CS4)S3)N=C1
Outline: as §1

[6] = compound: C1=CC2=NC=CN=C2C=C1/C=C/3\C(=O)NC(=O)S3
Outline: as §1

[7] = compound: C1=CC=C(C=C1)C2=NC(=C(N2)C3=CC=NC=C3)C4=CC(=C(C=C4)Cl)O
Outline: as §1

[8] = compound: C1=CC=C2C(=C1)C3=NNC4=CC=CC(=C43)C2=O
Outline: as §1

[9] = compound: C1CCN(C1)C(=O)NC2=CC=CC(=C2)NC3=NC=C(C(=N3)NCCC4=CN=CN4)Br
Outline: as §1

[10] = compound: C1CN(CCC1(CC2=CC=C(C=C2)Cl)N)C3=NC=NC4=C3C=CN4
Outline: as §1

Measured: log2 fold change

SERBP1 (UniProt Q8NC51)
inactive: [1] -0.04 | [2] -0.101 | [3] -0.231 | [4] -0.004 | [5] 0.036 | [6] 0.011 | [7] -0.083 | [8] -0.005 | [9] 0.051 | [10] -0.03

SERPINB8 (UniProt P50452)
inactive: [1] 0.024 | [2] -0.025 | [3] -0.035 | [4] -0.005 | [5] -0.04 | [6] 0.047 | [7] -0.004 | [8] -0.039 | [9] 0.04 | [10] 0.063

SF3A3 (UniProt Q12874)
inactive: [1] -0.014 | [2] 0.077 | [3] -0.072 | [4] -0.056 | [5] 0.073 | [6] 0.028 | [7] 0.002 | [8] -0.027 | [9] -0.057 | [10] 0.017

SGPL1 (UniProt O95470)
inactive: [1] -0.038 | [2] -0.019 | [3] -0.088 | [4] -0.047 | [5] 0.05 | [6] -0.029 | [7] 0.01 | [8] -0.001 | [9] -0.035 | [10] -0.145

SFT2D2 (UniProt O95562)
inactive: [1] 0.153 | [2] -0.082 | [3] 0.029 | [4] -0.015 | [5] 0.095 | [6] 0.057 | [7] -0.146 | [8] -0.058 | [9] 0.04 | [10] 0.043

SF3A1 (UniProt Q15459)
inactive: [1] -0.002 | [2] 0.008 | [3] -0.034 | [4] -0.001 | [5] 0.011 | [6] 0.051 | [7] 0.033 | [8] -0.052 | [9] -0.023 | [10] -0.052

SIRT1 (UniProt Q96EB6)
inactive: [1] -0.007 | [2] 0.04 | [3] 0.098 | [4] 0.044 | [5] -0.003 | [6] -0.012 | [7] -0.02 | [8] -0.004 | [9] 0 | [10] 0.015

SEPHS1 (UniProt P49903)
inactive: [1] -0.035 | [2] 0.01 | [3] 0.092 | [4] 0 | [5] -0.005 | [6] 0.007 | [7] 0.004 | [8] 0.024 | [9] -0.041 | [10] 0.037

SEPSECS (UniProt Q9HD40)
inactive: [1] 0.015 | [2] 0.024 | [3] 0.066 | [4] 0.033 | [5] -0.035 | [6] 0.011 | [7] -0.017 | [8] -0.009 | [9] -0.022 | [10] 0.031

SH3BGRL (UniProt O75368)
inactive: [1] 0.044 | [2] 0.033 | [3] 0.162 | [4] -0.01 | [5] 0.014 | [6] 0.009 | [7] 0.096 | [8] 0.034 | [9] -0.08 | [10] 0.03

SHROOM2 (UniProt Q13796)
active: [2] -1.03
inactive: [1] 0.266 | [3] 0.095 | [4] -0.361 | [5] 0.069 | [6] -0.021 | [8] 0.013 | [9] -0.027 | [10] 0.303

SH2D1B (UniProt O14796)
inactive: [1] -0.294 | [2] -0.059 | [3] -0.218 | [4] -0.098 | [5] 0.057 | [7] -0.228 | [8] -0.406 | [9] -0.036 | [10] 0.028

SEMA4B (UniProt Q9NPR2)
inactive: [1] 0.101 | [2] -0.061 | [3] -0.049 | [4] 0.106 | [5] 0.164 | [6] 0.073 | [7] -0.188 | [8] -0.138 | [9] 0.168 | [10] 0.226

SERPINC1 (UniProt P01008)
inactive: [1] -0.2 | [2] -0.075 | [3] -0.04 | [4] 0.166 | [5] 0.18 | [6] -0.091 | [7] -0.027 | [8] -0.075 | [9] 0.231 | [10] 0.318

SEC61G (UniProt P60059)
inactive: [1] 0.031 | [3] -0.223 | [4] 0.183 | [6] 0.067 | [7] -0.122

SGSH (UniProt P51688)
inactive: [1] 0.047 | [4] 0.116

SEPTIN10 isoform 2 (UniProt Q9P0V9)
inactive: [1] 0.071 | [2] 0.004 | [3] 0.119 | [4] 0.09 | [5] 0.013 | [6] -0.046 | [8] -0.007 | [9] 0.087 | [10] 0.084

SH3PXD2B (UniProt A1X283)
inactive: [1] 0 | [2] -0.036 | [3] -0.013 | [4] -0.153 | [5] 0.04 | [6] -0.012 | [8] 0.04 | [9] -0.034 | [10] 0.132

SFT2D3 (UniProt Q587I9)
inactive: [1] 0.055 | [3] -0.015 | [4] 0.031 | [6] -0.042 | [7] -0.045 | [9] -0.061 | [10] -0.197

SELENOK (UniProt Q9Y6D0)
inactive: [1] -0.11 | [2] -0.071 | [3] -0.031 | [4] 0.057 | [5] 0.045 | [6] 0.087 | [8] 0.049 | [9] -0.087 | [10] 0.117

SH2D2A isoform 2 (UniProt Q9NP31)
inactive: [1] -0.127 | [2] -0.103 | [4] 0.043 | [5] 0.25 | [8] -0.044

SF3B5 (UniProt Q9BWJ5)
inactive: [1] -0.088 | [2] -0.04 | [3] 0.319 | [4] 0.051 | [5] 0.023 | [6] 0.199 | [8] 0.107 | [9] -0.104 | [10] -0.002

SERAC1 (UniProt Q96JX3)
inactive: [1] 0.085 | [4] -0.15

SIRT3 (UniProt Q9NTG7)
inactive: [1] 0.079 | [2] 0.127 | [4] 0.042 | [5] -0.214 | [7] -0.035 | [8] 0.026

SKA3 (UniProt Q8IX90)
inactive: [1] 0.044 | [3] -0.187 | [4] 0.052 | [6] 0.105 | [7] -0.122 | [9] 0.121 | [10] -0.122

SELENOM (UniProt Q8WWX9)
inactive: [1] -0.106 | [3] -0.031 | [4] 0.016

SIGIRR (UniProt H0YDR5)
inactive: [1] 0.181 | [4] -0.122

SERPIND1 (UniProt P05546)
inactive: [1] -0.239 | [3] 0.024 | [4] 0.128

SGPP1 (UniProt Q9BX95)
inactive: [1] 0.003 | [2] -0.071 | [3] -0.02 | [4] -0.011 | [5] 0.04 | [6] -0.106 | [8] -0.041 | [9] -0.069 | [10] 0.098

SETDB1 (UniProt Q15047)
inactive: [1] 0.22 | [2] -0.294 | [3] -0.022 | [4] -0.003 | [5] 0.158 | [7] 0.135 | [8] 0.092 | [9] -0.015 | [10] 0.208

SIMC1 (UniProt Q8NDZ2)
inactive: [1] 0.182 | [4] 0.057

SELENOP (UniProt P49908)
inactive: [1] -0.058 | [4] 0.187 | [6] -0.064

Reprinted at random: 2 records from the list.
SERPIND1 (UniProt P05546)
inactive: [1] -0.239 | [3] 0.024 | [4] 0.128

SGPP1 (UniProt Q9BX95)
inactive: [1] 0.003 | [2] -0.071 | [3] -0.02 | [4] -0.011 | [5] 0.04 | [6] -0.106 | [8] -0.041 | [9] -0.069 | [10] 0.098

Additional entries.

SEC61B (UniProt P60468)
inactive: [1] -0.039 | [2] -0.095 | [3] 0.028 | [4] -0.086 | [5] -0.056 | [6] 0.059 | [7] -0.016 | [8] -0.051 | [9] 0.064 | [10] -0.004

SKAP2 (UniProt O75563)
inactive: [1] 0.099 | [2] 0.04 | [4] 0.052 | [5] -0.081 | [7] 0.009 | [8] -0.019 | [9] 0.232 | [10] 0.294
